The values that follow come from the supplement of paper PMC10338343.

± gives the standard deviation. Some of the results follow. The uncertainty is large for many entries.

In one experiment the test system is EfPiwi piRISC loaded with L1MC piRNA (26 nt). The experiment can be described thus: pre-steady-state target cleavage rate (min^-1); guide: L1MC piRNA 5'p-UAACUAAAUACUAUGCAAGCUGUAGG; MIWI and MILI are mouse PIWI proteins and EfPiwi is from a freshwater sponge; tags in brackets are library labels; higher = faster piRNA-guided slicing of the target. The settings on record: auxiliary factor: 500 nM Ephydatia muelleri Gtsf1. The essentials: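 Cleave-'n-Seq: a transcribed, DNA-blocked target RNA library (0.1 nM) was mixed with 1 nM active affinity-purified piRISC carrying one synthetic guide, with or without 500 nM GTSF1 partner protein, in HEPES–potassium acetate buffer at 33 °C for 0–8 or 0–960 min. Uncleaved targets were sequenced and normalised to depth and to weakly complementary targets. Three trials were pooled, and k3 was capped at 0.0001 min^-1. The pre-steady-state cleavage rate came from a burst-and-steady-state fit.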
Regarding UCCUCCUAAAGCUUGCAUAGUAUUUAGUUA, the “pre-steady-state target cleavage rate” value is 0.00604 ± 0.0023.
Consider UCCUGCUACUGCUUGCAUAGUAUUUUGUUA, for which the “pre-steady-state target cleavage rate” value was 0.0061 ± 0.0024.
The same measure, in the same setting: the result for UCCUGGAUCAGCUAGGAUAGUAUUUAGUUA reads 0.00257 ± 0.002.
Turning to UCCUGGAUGUCGAUGCAAAGUAUUUACUUA, the “pre-steady-state target cleavage rate” value worked out at 0.000129 ± 0.018.
On to UCCUGGAUGUGCUUGCACAGUAUUUAGUUA, for which the “pre-steady-state target cleavage rate” value was 0.00686 ± 0.0028.
Take UCCUGGAUGUCGAAGCAGUAGUAUUUAGUUA: the “pre-steady-state target cleavage rate” value was found to be 0.000682 ± 0.0087.
Still for that read-out and setting: the result for UCCUCCUACAGCUUGCAUCGUAUUUAGUUA reads 0.0492 ± 0.014.
Still for that read-out and setting: the result for UCCUGGAUGAGCUUGAAUAGUAUUUAGUUA reads 0.00419 ± 0.0027; that for UCCUCCUACAGCUAGCAUAGUAUAUAGUUA, 0.00495 ± 0.0026; that for UCCUCCUACAGCUUGCAUAGUAGUUAGUUA, 0.00786 ± 0.0026.
UCCUGGUACAGCUCGCAUAGUAUUUAGUUA: the “pre-steady-state target cleavage rate” value turned out to be 0.00967 ± 0.0034.
As for UCCUGGAUGAGCAUGCAUAGUUUUUAGUUA, the “pre-steady-state target cleavage rate” value is 0.00108 ± 0.0055.
Take UCCUCCUACAGCUAUGCAUAGUAUUUAGUUA: the “pre-steady-state target cleavage rate” value is 0.0164 ± 0.0055.

Still in this experiment, the particulars now being: auxiliary factor: none (no Gtsf1).
As for UCCUGCUUCAGCUUGCAUAGUUUUUAGUUA, the “pre-steady-state target cleavage rate” value came to 0.000606 ± 0.01.
On the same count and under the same terms, the result for UCCUGCUACAGGAUGCAUAGUAUUUAGUAA reads 0.000186 ± 0.034; that for UCCUGCUACAGCUUGCAUUGUAUUUAGAUA, 0.000335 ± 0.016.
